Experimental findings from the supplement of paper PMC6411743 are described below.

By UniProt entry, the sequences of proteins in these tests, tags left out. Where a name states a change or a piece, a line headed by the entry shows the natural chain unless it says otherwise.
UniProt Q9H9B1: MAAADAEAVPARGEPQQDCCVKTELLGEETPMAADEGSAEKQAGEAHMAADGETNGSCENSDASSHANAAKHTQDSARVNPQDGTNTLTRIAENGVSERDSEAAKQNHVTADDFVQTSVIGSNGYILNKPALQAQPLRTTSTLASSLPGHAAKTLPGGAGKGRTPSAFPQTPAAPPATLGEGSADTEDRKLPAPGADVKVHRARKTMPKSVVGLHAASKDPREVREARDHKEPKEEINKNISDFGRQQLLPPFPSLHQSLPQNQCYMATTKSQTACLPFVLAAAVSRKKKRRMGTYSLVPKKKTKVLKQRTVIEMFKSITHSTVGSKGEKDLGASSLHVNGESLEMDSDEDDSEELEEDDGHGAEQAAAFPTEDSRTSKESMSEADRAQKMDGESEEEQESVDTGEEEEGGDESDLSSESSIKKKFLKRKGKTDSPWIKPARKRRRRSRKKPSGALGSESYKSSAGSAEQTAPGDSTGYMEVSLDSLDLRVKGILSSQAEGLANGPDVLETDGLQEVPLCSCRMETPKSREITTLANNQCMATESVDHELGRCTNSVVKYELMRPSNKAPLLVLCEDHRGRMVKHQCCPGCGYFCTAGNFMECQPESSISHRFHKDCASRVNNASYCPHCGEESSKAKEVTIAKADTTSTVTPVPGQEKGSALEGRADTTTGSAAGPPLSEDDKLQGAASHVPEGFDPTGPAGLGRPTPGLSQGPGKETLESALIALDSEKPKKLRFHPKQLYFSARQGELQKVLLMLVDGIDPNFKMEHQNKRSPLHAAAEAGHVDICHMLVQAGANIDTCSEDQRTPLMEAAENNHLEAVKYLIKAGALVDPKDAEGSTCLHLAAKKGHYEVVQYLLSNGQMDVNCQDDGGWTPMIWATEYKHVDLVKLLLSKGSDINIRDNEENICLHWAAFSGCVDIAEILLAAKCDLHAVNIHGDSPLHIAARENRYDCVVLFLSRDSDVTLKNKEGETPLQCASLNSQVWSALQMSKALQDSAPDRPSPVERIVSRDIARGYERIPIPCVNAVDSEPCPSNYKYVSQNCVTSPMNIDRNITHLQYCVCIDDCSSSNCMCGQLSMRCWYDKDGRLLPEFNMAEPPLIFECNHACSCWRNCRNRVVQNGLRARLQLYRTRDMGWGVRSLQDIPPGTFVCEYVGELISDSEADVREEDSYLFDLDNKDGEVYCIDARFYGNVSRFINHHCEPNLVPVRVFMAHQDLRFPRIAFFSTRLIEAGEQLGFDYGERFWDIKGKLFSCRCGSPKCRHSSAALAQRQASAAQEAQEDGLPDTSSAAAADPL
UniProt Q9HBK9: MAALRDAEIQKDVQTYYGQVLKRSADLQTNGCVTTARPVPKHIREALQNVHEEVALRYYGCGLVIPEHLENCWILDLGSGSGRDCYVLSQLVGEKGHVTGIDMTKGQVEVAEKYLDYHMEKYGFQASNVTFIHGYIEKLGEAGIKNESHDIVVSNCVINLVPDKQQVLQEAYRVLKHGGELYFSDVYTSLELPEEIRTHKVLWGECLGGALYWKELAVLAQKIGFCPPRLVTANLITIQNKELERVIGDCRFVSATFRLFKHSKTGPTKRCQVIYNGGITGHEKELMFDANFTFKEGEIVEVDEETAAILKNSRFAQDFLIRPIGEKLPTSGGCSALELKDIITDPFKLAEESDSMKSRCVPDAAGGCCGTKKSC
UniProt Q9HCJ3: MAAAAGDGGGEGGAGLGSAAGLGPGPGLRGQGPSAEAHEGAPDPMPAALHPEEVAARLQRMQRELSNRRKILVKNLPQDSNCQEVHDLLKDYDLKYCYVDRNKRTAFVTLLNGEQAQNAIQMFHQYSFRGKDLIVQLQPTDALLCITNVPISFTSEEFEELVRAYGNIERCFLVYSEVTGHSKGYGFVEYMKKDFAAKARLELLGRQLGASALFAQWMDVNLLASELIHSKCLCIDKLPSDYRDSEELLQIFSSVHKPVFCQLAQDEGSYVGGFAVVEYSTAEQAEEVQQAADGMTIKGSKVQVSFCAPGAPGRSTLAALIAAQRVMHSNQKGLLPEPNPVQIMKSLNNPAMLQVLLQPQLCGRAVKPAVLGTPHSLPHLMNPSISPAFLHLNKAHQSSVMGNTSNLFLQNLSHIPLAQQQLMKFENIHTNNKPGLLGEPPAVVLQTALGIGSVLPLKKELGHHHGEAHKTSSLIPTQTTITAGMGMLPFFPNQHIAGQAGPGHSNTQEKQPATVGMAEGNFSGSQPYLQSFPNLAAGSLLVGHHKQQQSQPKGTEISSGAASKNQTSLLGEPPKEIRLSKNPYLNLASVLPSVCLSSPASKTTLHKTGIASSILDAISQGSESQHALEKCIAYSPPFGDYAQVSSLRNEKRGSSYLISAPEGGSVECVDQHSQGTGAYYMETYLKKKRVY
UniProt Q9H6S1, whole entry: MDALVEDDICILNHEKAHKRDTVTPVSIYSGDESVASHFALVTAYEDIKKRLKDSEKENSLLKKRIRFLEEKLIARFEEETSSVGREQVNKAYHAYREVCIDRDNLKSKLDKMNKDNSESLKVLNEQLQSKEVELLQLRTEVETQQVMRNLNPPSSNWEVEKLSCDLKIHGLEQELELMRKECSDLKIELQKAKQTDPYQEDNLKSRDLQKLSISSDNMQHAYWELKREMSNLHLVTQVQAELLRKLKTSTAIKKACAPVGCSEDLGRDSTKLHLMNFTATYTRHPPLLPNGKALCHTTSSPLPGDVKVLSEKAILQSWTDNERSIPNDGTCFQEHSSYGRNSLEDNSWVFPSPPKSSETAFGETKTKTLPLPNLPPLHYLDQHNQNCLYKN
UniProt Q9HA38: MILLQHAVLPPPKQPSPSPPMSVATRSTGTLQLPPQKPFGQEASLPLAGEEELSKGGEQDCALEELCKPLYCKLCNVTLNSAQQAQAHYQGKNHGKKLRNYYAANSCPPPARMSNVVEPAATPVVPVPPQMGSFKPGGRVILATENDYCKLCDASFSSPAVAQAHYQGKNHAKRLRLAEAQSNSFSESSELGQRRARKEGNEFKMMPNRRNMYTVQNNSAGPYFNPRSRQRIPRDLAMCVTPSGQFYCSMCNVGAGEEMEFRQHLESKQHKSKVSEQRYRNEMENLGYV
UniProt Q9H2J4: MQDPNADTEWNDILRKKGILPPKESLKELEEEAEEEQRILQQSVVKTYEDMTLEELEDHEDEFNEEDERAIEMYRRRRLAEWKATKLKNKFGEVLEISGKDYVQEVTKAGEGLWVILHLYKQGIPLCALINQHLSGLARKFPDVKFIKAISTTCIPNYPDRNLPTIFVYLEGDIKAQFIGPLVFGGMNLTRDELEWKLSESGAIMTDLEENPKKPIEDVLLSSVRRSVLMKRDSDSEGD
UniProt Q9H0R5: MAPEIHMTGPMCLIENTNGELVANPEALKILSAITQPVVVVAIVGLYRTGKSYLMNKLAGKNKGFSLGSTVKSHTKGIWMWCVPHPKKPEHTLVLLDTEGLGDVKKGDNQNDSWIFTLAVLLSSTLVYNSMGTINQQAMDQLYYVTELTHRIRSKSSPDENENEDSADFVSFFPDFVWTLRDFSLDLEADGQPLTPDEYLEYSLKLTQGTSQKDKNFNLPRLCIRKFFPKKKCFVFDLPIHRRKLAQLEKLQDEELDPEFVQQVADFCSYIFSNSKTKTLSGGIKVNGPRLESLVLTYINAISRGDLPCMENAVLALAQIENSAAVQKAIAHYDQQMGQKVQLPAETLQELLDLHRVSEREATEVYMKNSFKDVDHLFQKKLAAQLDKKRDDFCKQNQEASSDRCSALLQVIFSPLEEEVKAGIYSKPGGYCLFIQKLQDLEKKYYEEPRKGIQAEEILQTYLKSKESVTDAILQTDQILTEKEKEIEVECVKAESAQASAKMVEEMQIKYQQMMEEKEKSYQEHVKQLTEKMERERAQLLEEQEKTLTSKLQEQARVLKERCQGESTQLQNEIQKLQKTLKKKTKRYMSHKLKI
UniProt Q9H3H5: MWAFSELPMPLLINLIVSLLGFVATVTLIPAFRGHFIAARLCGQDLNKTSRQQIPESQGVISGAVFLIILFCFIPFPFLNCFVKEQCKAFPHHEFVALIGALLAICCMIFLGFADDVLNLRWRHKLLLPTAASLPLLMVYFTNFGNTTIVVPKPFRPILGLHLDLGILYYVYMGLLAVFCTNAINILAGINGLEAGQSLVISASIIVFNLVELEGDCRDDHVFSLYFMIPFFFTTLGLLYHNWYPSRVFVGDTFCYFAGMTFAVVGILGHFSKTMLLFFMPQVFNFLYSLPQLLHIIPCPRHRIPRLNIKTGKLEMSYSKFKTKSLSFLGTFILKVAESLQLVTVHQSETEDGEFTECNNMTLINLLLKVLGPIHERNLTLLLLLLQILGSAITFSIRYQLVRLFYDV
UniProt Q9C0I1: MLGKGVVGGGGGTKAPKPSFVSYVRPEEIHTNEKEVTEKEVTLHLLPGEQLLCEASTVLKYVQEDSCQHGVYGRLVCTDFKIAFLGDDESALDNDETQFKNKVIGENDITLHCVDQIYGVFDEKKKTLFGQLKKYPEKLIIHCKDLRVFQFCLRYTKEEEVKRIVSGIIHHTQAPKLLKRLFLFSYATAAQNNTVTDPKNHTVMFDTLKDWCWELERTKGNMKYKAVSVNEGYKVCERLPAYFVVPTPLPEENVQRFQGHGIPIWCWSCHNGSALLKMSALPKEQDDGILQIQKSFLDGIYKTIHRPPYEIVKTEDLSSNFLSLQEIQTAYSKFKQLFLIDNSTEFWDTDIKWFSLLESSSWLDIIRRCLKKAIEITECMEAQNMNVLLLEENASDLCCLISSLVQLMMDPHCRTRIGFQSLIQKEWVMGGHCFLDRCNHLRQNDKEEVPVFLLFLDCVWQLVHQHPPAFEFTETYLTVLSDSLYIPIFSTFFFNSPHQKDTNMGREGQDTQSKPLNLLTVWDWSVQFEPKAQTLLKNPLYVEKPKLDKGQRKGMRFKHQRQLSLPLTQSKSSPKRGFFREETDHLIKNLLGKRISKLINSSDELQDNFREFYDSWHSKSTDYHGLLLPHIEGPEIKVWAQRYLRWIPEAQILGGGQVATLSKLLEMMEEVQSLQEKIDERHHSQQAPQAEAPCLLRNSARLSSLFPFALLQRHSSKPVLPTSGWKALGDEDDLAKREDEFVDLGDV
UniProt Q9H6E4: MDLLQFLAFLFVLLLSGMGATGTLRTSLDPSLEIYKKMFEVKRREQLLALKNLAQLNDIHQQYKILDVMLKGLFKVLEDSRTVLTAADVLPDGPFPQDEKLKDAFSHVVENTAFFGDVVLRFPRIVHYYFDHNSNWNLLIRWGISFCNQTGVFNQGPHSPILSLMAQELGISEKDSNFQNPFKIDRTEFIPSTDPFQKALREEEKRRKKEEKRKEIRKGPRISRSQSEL
UniProt Q9NP50: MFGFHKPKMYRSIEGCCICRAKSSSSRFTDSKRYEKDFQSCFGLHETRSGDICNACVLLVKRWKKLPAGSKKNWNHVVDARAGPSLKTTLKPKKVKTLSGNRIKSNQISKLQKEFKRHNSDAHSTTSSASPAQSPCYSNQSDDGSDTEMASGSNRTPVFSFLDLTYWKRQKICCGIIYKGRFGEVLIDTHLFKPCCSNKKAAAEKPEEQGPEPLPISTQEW
UniProt Q9H8H0: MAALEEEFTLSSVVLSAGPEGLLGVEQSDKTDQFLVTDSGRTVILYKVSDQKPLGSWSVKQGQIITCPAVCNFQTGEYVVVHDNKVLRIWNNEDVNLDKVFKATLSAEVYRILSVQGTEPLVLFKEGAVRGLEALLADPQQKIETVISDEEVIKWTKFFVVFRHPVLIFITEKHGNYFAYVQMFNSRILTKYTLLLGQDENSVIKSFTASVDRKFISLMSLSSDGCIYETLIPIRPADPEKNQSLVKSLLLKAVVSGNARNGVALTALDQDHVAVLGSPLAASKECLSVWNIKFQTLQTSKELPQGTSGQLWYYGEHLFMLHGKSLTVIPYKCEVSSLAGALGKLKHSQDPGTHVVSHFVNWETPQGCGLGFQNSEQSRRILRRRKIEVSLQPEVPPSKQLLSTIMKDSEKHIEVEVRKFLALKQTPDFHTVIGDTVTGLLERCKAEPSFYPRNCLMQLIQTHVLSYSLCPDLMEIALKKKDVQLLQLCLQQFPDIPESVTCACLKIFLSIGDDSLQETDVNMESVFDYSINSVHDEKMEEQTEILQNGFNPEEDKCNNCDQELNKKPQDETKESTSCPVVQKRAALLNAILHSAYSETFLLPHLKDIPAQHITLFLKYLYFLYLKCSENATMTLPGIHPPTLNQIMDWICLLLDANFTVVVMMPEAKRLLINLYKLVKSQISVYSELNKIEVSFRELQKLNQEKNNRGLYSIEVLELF

± gives the standard deviation of the averaged measurements. The entries are a selection whose mix differs from that of the whole data set. Most entries show no effect beyond the scatter of the controls.

Compound in this test: Nc1ncnc2c1ncn2[C@@H]1O[C@H](COP(=O)(O)OP(=O)(O)OP(=O)(O)O)[C@@H](O)[C@H]1O [adenosine triphosphate]
Kind of test: NP40-soluble protein abundance relative to vehicle (solubility fold change) (ratio); higher = more soluble protein in presence of ATP. Particulars: concentration: 0.1mM. A digest of the protocol:
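Values are fold changes against the detergent-processed vehicle, based on vsn-normalised intensities. Jurkat crude lysate was treated at eight concentrations from 0.1 to 10 mM (10 min at room temperature, then 3 min at 37 °C), solubilised with 0.8% NP40 and benzonase, ultracentrifuged and analysed by TMT-labelled LC-MS/MS over three independent experiments.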
On to UniProt Q9H0W9 and related entries, for which the NP40-soluble protein abundance is 1.03 ± 0.029. Take EHMT1 (UniProt Q9H9B1): the NP40-soluble protein abundance turned out to be 0.91327 ± 0.00072.

As to UniProt Q9H8K7, the NP40-soluble protein abundance turned out to be 1.04 ± 0.033. As to UniProt Q9H5V9 and related entries, the NP40-soluble protein abundance was 0.978 ± 0.013.

For the target UniProt Q9HBK9, the NP40-soluble protein abundance turned out to be 0.982 ± 0.12. Next, LRRC40 (UniProt Q9H9A6): 0.999 ± 0.012. Next, UniProt Q9H6U6 and related entries: 1.02 ± 0.059.

Turning to LSG1 (UniProt Q9H089), the NP40-soluble protein abundance turned out to be 1.06 ± 0.016. Next, CWC22 (UniProt Q9HCG8): 0.989 ± 0.019. Next, UniProt Q9H2V7 and related entries: 1.04 ± 0.055; UniProt Q9HCJ3 and related entries: 0.909 ± 0.069; AZI2 (UniProt Q9H6S1): 0.973 ± 0.09.

On to MIS12 (UniProt Q9H081), for which the NP40-soluble protein abundance came to 0.902 ± 0.17. The same measure for L2HGDH (UniProt Q9H9P8): 1.02 ± 0.034; for UniProt Q9HA38 and related entries: 0.9716 ± 0.0018; for UniProt Q9H9V9 and related entries: 1.04 ± 0.15. The same measure for UniProt Q9H078-2: 1.07 ± 0.028; for UniProt Q9H2Y7 and related entries: 0.925 ± 0.12. The same measure for PDCL3 (UniProt Q9H2J4): 0.961 ± 0.044; for RAB33B (UniProt Q9H082): 1.02 ± 0.029; for UniProt Q9H0R5 and related entries: 0.913 ± 0.068.

MYH16 (UniProt Q9H6N6): the NP40-soluble protein abundance amounted to 0.967 ± 0.015. The same measure for RRAGC (UniProt Q9HB90): 1.04 ± 0.14; for UniProt Q9HAS0 and related entries: 1.013 ± 0.0077. The same measure for CENPH (UniProt Q9H3R5): 0.956 ± 0.12; for APOBEC3G (UniProt Q9HC16): 0.977 ± 0.11.

As for UniProt Q9HBE1 and related entries, the NP40-soluble protein abundance came out at 1.02 ± 0.027. Next, UniProt Q9H3H5 and related entries: 1.08 ± 0.13; PPCS (UniProt Q9HAB8): 1.03 ± 0.039.

For the target UniProt Q9H0R4 and related entries, the NP40-soluble protein abundance turned out to be 0.986 ± 0.016. Next, UniProt Q9C0I1: 1 ± 0.12; CSTF2T (UniProt Q9H0L4): 1.008 ± 0.0075.

In the case of CCDC134 (UniProt Q9H6E4), the NP40-soluble protein abundance came to 0.968 ± 0.061. Next, ACBD3 (UniProt Q9H3P7): 1.05 ± 0.077.

For UniProt Q9NP50, the NP40-soluble protein abundance was found to be 0.9464 ± 0.0032.

Consider NOL11 (UniProt Q9H8H0), for which the NP40-soluble protein abundance turned out to be 1.03 ± 0.052.

Consider CCDC86 (UniProt Q9H6F5), for which the NP40-soluble protein abundance was 0.945 ± 0.042. The same measure for PCIF1 (UniProt Q9H4Z3): 1.02 ± 0.027.
